Reference: patent US20140051815A1, “ORGANIC SULFONIC ACID COMPOUND, DOPANT HAVING SAME, AND CONDUCTIVE POLYMER COMPLEX HAVING THE DOPANT” (Ajou University Industry-Academic Cooperation Foundation, priority 2011, published 2014)

Assay: Electrical conductivity of doped polyaniline (ES) films, four-point probe
Assay type: physicochemical
Details: for Conductivity: polyaniline doped with dopant; for Conductivity of CSA + dopant in m-cresol: polyaniline with CSA + dopant (10%), or CSA alone
Procedure: Before a polyaniline film was manufactured, a polyaniline (ES) solution was prepared as follows. In order to prepare polyaniline (ES) solutions respectively doped with the dopant I to the dopant VI, a molar ratio of a polyaniline (EB) tetramer unit to each of the dopant I to the dopant VI was set to 1:2 and a total content of them was set to 1.5 wt. % with respect to m-cresol as a solvent. A mixture of the polyaniline (EB) with each of the dopant I to the dopant VI was uniformly grounded and mixed in a mortar for 30 minutes. The mixture powder was put into each of solvents NMP and m-cresol and dissolved at a speed of 24,000 rpm for 10 minutes by using a homogenizer. Each of the prepared solutions was put on a glass plate on a hot plate set to from 40° C. to 50° C. and dried for 48 hours or more so as to manufacture a film. The glass plate (2.5 cm×2.5 cm×0.1 cm) was immersed in aqua regia for 4 hours or more and then taken out to wash a surface thereof with secondary distilled water and ethanol before use.
Then, with respect to each film prepared, conductivity and sheet resistance were measured and results thereof are as shown in the following Tables 1 to 3.
The conductivity was measured by using a four-point probe method in order to remove contact resistance between a gold wire electrode and a sample. The film and the gold wire were brought into contact with each other by using carbon paste. A thickness of the film was measured by using a micrometer produced by Mitutoy.
A current and a voltage were measured by using a Source-Measure Units Model 237 produced by Keithley Instruments. According to the measurement method, when a constant source current (I, DC) was applied to two outside terminals, a voltage difference (V) caused by the application was measured at the two inside terminals.
Electrical conductivity was calculated by using the following formula.
When electrical conductivity of a very thin sample such as a semiconductor wafer or a conductive coating was measured, the measurement was carried out by using a collinear four-point probe method.
A collinear four-point probe was purchased from Jandel Engineering Ltd. and used. This probe was connected to the Source-Measure Units Model 237 produced by Keithley Instruments. The measurement was carried out in the same manner as the four-probe method, and a calculation formula was as follows.
In Tables 1 to 3, the term “over” described with respect to conductivity means that measurement cannot be made at a conductivity of 10^−3 S/cm or less, and the term “over” described with respect to sheet resistance means that measurement cannot be made at a sheet resistance of 10^5Ω or more.

[1] = m-cresol, 1.2 μm Filter: Mixed for 30 minutes
[2] = m-cresol, 1.2 μm Filter: Not mixed

Cc1cccc(OCCCS(=O)(=O)O)c1 [Dopant I]
Conductivity [1]: 59.66 S/cm
Conductivity [2]: OVER (measurement cannot be made at a conductivity of 10^−3 S/cm or less)
Conductivity of CSA + dopant in m-cresol (m-cresol): 179 S/cm

CC1(C)C2CC[C@@]1(CS(=O)(=O)O)C(=O)C2 [CSA, (1S)-(+)-10-camphorsulfonic acid, reference compound]
Conductivity (NMP, 1.2 μm Filter: Mixed for 30 minutes): 21.56 S/cm
Conductivity of CSA + dopant in m-cresol (m-cresol): 247 S/cm

O=S(=O)(O)CCCOc1ccc(O)cc1 [Dopant II]
Conductivity [1]: OVER (measurement cannot be made at a conductivity of 10^−3 S/cm or less)
Conductivity [2]: OVER (measurement cannot be made at a conductivity of 10^−3 S/cm or less)
Conductivity of CSA + dopant in m-cresol (m-cresol): 211 S/cm
